From article PMC6197744, “Triazolo[4,5-d]pyrimidines as Validated General Control Nonderepressible 2 (GCN2) Protein Kinase Inhibitors Reduce Growth of Leukemia Cells” (Computational and Structural Biotechnology Journal, 2018)

System: NCI-60 cell panel
Assay: NCI COMPARE analysis
Set-up: species or system human
Conditions: NCI Standard Agents database; for PCC with Maytansine: GI50, high concentration tested 10^–^8.6 M
[1] = high concentration tested 10^–^4.0 M

Row | SMILES | PCC with Maytansine | PCC with Batracylin [1] | PCC with D-tetrandrine [1]
1 | CCn1cc(Nc2ncc3nnn(-c4ccc(C(=O)OC)cc4)c3n2)cn1 [Compound 1, Methyl 4-(5-((1-ethyl-1H-pyrazol-4-yl)amino)-3H-[1,2,3]triazolo[4,5-d]pyrimidin-3-yl)benzoate] | 0.519 | 0.488 | –
2 | CCOc1ccc(-n2nnc3cnc(Nc4cnn(CC)c4)nc32)cc1 [Compound 2, 3-(4-Ethoxyphenyl)-N-(1-ethyl-1H-pyrazol-4-yl)-3H-[1,2,3]triazolo[4,5-d]pyrimidin-5-amine] | 0.554 | – | 0.488
